Binding data for two molecules are collected here from patent US20230031980A1 (SHANGHAI NINTH PEOPLE S HOSPITAL SHANGHAI JIAO TONG …, published 2023).

Sequences of proteins named here, by UniProt entry; tags and fusion partners are left off. A change or cut given only in a name is not applied to a line headed by its entry.
UniProt Q9UL03: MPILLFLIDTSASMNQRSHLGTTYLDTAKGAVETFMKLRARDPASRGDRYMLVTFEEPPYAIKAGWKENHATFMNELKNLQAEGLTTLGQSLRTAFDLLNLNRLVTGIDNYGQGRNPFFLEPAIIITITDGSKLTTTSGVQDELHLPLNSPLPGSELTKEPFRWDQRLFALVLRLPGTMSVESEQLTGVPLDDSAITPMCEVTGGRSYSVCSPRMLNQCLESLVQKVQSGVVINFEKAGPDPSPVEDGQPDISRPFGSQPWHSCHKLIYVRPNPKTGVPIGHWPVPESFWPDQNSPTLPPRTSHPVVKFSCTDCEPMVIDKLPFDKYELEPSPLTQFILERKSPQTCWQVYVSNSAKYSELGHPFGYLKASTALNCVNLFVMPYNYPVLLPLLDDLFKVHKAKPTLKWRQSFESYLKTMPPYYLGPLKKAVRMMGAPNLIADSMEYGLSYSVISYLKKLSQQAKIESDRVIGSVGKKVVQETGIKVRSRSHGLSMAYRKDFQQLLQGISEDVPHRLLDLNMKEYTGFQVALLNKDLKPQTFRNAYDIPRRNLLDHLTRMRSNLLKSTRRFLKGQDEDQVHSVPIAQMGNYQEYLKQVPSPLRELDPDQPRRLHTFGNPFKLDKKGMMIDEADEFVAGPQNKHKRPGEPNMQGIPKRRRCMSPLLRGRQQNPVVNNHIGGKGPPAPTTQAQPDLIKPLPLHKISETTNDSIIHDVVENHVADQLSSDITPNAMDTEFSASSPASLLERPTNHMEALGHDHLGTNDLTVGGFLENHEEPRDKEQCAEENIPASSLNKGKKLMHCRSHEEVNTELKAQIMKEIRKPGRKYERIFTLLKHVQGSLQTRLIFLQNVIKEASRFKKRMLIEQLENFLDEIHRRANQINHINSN
UniProt Q68E01: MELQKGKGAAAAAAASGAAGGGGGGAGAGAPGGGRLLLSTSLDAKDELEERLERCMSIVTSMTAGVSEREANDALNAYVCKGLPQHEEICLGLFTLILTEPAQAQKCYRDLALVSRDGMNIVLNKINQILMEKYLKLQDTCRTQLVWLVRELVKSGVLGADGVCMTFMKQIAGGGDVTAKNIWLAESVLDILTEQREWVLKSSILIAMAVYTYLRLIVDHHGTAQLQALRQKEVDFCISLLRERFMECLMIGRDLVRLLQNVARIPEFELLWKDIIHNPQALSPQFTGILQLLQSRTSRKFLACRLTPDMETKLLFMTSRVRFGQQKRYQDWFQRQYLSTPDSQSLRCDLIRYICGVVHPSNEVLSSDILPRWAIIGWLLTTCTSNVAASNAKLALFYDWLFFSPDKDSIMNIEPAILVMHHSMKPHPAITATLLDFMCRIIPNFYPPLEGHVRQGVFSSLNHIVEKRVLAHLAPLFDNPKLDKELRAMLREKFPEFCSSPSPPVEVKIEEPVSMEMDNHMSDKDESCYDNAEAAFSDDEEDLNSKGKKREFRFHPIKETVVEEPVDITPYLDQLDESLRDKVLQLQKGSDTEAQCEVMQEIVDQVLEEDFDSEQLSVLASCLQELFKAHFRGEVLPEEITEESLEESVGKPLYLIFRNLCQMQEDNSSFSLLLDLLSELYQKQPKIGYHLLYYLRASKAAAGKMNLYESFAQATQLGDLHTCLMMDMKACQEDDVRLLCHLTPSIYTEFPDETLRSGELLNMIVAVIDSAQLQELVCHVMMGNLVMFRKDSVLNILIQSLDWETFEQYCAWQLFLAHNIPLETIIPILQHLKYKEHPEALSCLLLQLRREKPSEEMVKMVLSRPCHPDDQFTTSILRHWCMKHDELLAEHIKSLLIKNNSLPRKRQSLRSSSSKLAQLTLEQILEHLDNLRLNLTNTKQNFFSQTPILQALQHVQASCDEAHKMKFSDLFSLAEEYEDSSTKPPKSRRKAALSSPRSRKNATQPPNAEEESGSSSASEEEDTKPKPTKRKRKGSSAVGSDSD

The target of assay [1] is INTS6 (integrator complex subunit 6), endogenous full-length protein (human) (UniProt Q9UL03). Description: IP-MS with anti-INTS3 antibody in SAGE1 negative 293T cells.
Assay [2] addresses INTS3CTD (C-terminal domain of INTS3, residues 572-978) (human) (UniProt Q68E01). Description: GST pull-down competition; GST-SAGE1I3BD added in equal molar ratio to the INTS3CTD-INTS6I3BD complex; competitor INTS6I3BD.

These are yes or no findings as the source states them, for the method shown. Binding seen in cells or lysates may run through a third protein. Some results given as binding are weak or reduced against the parent protein; the word gives no strength. For some assays here: Sequences can lack the tags named with a protein.

As for “INTS3 (integrator complex subunit 3), endogenous full-length protein (from UniProt Q68E01 2-1043)”, the binding entry in assay [1] is reported as “binds”.

B1: SAGE1I3BD (INTS3-binding domain of SAGE1, residues 818-904) (other)
chain: AMAKKINDDIKYQLMKEVRRFGQNYERIFILLEEVQGSMKVKRQFVEFTIKEAARFKKVVLIQQLEKALKEIDSHCHLRKVKHMRKR
notes: Expressed in E. coli with a His-SUMO or GST tag; also called SAGE1818-904; small C-terminal region of SAGE1
In the case of B1, the binding result in assay [2] is listed as “binds”.
